# Record: PubChem BioAssay AID1159578 (Peter MacCallum Cancer Centre, 2015)
# Purpose: 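Knock-downs that alter how fast lymphatic endothelial cells migrate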 (primary screen)
# Cells: human lymphatic endothelial cells
# Reagents: siRNA pool against human genes, 40 nM
# Duration: 48 h after transfection
# Measurement: 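High-content imaging of dye-stained cells in a scratch assay measures filled wound area and nuclei per well; duplicate means given as ratio to mock and robust z-score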
# Direction: migration robust z-score: higher = faster migration into the scratch; migration relative to mock: higher = more scratch area covered than mock; nuclei per well: higher = more cells in the well
# Call rule: 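Pools averaging fewer than 3300 nuclei are never called; remaining pools count as changed when migration robust z lies outside -2 to 2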
# Meaning of the calls: active = migration changed; inactive = no migration change, or too few cells
# In all, the deposit lists about 18,000 reagents; below is an unselected part. About 1,030 of all reagents (5.7%) were called active. 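Inactive calls also include pools with fewer than 3300 nuclei, whose migration was not assessed.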 The raw values are shown without normalisation. Reagent sequences are not shown.
Target gene,migration robust z-score,migration class with cell-count check,migration relative to mock,"nuclei per well, duplicate mean",call
RGMA,-0.45,migration z between -2 and 2; enough cells,0.76,5461,inactive
GYPB,-0.94,migration z between -2 and 2; enough cells,0.64,6564,inactive
BLOC1S3,1.17,migration z between -2 and 2; enough cells,1.19,6598,inactive
HPCAL4,-0.94,under 3300 nuclei; migration not judged,0.64,3149,inactive
SYTL5,-0.66,migration z between -2 and 2; enough cells,0.72,4842,inactive
SAMD15,0.74,migration z between -2 and 2; enough cells,1.08,5464,inactive
ZBTB7B,0.31,migration z between -2 and 2; enough cells,0.86,5914,inactive
ZNF740,-1.31,migration z between -2 and 2; enough cells,0.55,5714,inactive
CIMAP3,-0.68,migration z between -2 and 2; enough cells,0.71,4670,inactive
SPDYA,-2.45,migration z below -2; enough cells,0.25,5488,active
ST3GAL1,-0.02,migration z between -2 and 2; enough cells,0.88,6170,inactive
ZNF26,-0.48,migration z between -2 and 2; enough cells,0.76,6150,inactive
ZNF451,-0.15,migration z between -2 and 2; enough cells,0.85,4422,inactive
DSC2,0.16,migration z between -2 and 2; enough cells,0.84,5729,inactive
KLHL12,0.16,migration z between -2 and 2; enough cells,0.92,4386,inactive
NDUFAF2,0.21,migration z between -2 and 2; enough cells,0.94,5736,inactive
UBR5,1.4,migration z between -2 and 2; enough cells,1.07,5220,inactive
TACC2,-0.39,migration z between -2 and 2; enough cells,0.78,5482,inactive
CCNE2,0.18,migration z between -2 and 2; enough cells,0.94,6590,inactive
P2RY12,0.21,migration z between -2 and 2; enough cells,0.84,5744,inactive
AP5S1,1.02,migration z between -2 and 2; enough cells,1.16,5467,inactive
FIS1,-0.67,migration z between -2 and 2; enough cells,0.71,4198,inactive
C21orf91,-0.09,migration z between -2 and 2; enough cells,0.86,6478,inactive
C19orf44,0.4,migration z between -2 and 2; enough cells,0.98,5886,inactive
MAP3K19,-0.76,migration z between -2 and 2; enough cells,0.66,6298,inactive
SPIN3,-0.12,migration z between -2 and 2; enough cells,0.86,5878,inactive

The list goes on, starting with the last 4 of the part before.
Target gene,migration robust z-score,migration class with cell-count check,migration relative to mock,"nuclei per well, duplicate mean",call
C21orf91,-0.09,migration z between -2 and 2; enough cells,0.86,6478,inactive
C19orf44,0.4,migration z between -2 and 2; enough cells,0.98,5886,inactive
MAP3K19,-0.76,migration z between -2 and 2; enough cells,0.66,6298,inactive
SPIN3,-0.12,migration z between -2 and 2; enough cells,0.86,5878,inactive
KRTAP5-3,0.74,migration z between -2 and 2; enough cells,1.08,5720,inactive
SCG2,-0.4,migration z between -2 and 2; enough cells,0.78,6168,inactive
KCNA7,1.73,migration z between -2 and 2; enough cells,1.14,4636,inactive
ZNF770,-1.49,migration z between -2 and 2; enough cells,0.5,4994,inactive
ADGRG2,1.66,migration z between -2 and 2; enough cells,1.12,5808,inactive
CATSPERD,0.02,migration z between -2 and 2; enough cells,0.89,5564,inactive
MAP1LC3A,-1.62,migration z between -2 and 2; enough cells,0.46,3680,inactive
HIP1R,0.36,migration z between -2 and 2; enough cells,0.98,6264,inactive
HDAC5,-1.14,migration z between -2 and 2; enough cells,0.59,4742,inactive
UBE2V2,0.99,migration z between -2 and 2; enough cells,0.99,5082,inactive
HAMP,0.38,migration z between -2 and 2; enough cells,0.99,6056,inactive
KRTAP6-3,-0.34,migration z between -2 and 2; enough cells,0.8,6294,inactive
ILRUN,-0.94,migration z between -2 and 2; enough cells,0.64,3541,inactive
MROH2B,-0.41,migration z between -2 and 2; enough cells,0.78,4991,inactive
PJA1,1.5,migration z between -2 and 2; enough cells,1.09,5134,inactive
TFRC,-0.06,migration z between -2 and 2; enough cells,0.8,4520,inactive
FAM181B,-0.5,migration z between -2 and 2; enough cells,0.76,6068,inactive
SDE2,-1.38,migration z between -2 and 2; enough cells,0.53,6843,inactive
DCX,0,migration z between -2 and 2; enough cells,0.88,6237,inactive
WDR83OS,-1.92,migration z between -2 and 2; enough cells,0.38,5143,inactive
INO80,-0.88,migration z between -2 and 2; enough cells,0.65,5285,inactive
SP140L,0.23,migration z between -2 and 2; enough cells,0.94,6536,inactive
CST8,0.42,migration z between -2 and 2; enough cells,1,5674,inactive
NRAS,0.05,migration z between -2 and 2; enough cells,0.82,5626,inactive
MLNR,-0.91,migration z between -2 and 2; enough cells,0.63,4774,inactive
IRS4,-1.38,migration z between -2 and 2; enough cells,0.52,5745,inactive
TEX264,1.06,migration z between -2 and 2; enough cells,1.16,7045,inactive
GCHFR,-1.31,migration z between -2 and 2; enough cells,0.54,4354,inactive
AHSG,-0.65,migration z between -2 and 2; enough cells,0.72,5668,inactive
PRKCB,-1.04,migration z between -2 and 2; enough cells,0.6,5840,inactive
RECQL,2.18,migration z above 2; enough cells,1.23,4790,active
GADD45B,1.31,migration z between -2 and 2; enough cells,1.23,7112,inactive
CCDC83,0.29,migration z between -2 and 2; enough cells,0.96,5612,inactive
CD59,0.09,migration z between -2 and 2; enough cells,0.9,5340,inactive
FRK,0.52,migration z between -2 and 2; enough cells,0.9,4986,inactive
ACTC1,-0.24,migration z between -2 and 2; enough cells,0.82,5848,inactive
MYLIP,-0.28,migration z between -2 and 2; enough cells,0.75,6493,inactive
BCL2,1.3,migration z between -2 and 2; enough cells,1.06,3885,inactive
ZNF100,0.8,migration z between -2 and 2; enough cells,1.09,6523,inactive
ATXN1,-2.31,migration z below -2; enough cells,0.29,4974,active
CA4,-1.74,migration z between -2 and 2; enough cells,0.47,5262,inactive
PEAK3,-0.7,migration z between -2 and 2; enough cells,0.7,6158,inactive
MDGA2,0.56,migration z between -2 and 2; enough cells,1.03,4943,inactive
KLHL40,0.36,migration z between -2 and 2; enough cells,0.98,5520,inactive
DNAJC15,0.24,migration z between -2 and 2; enough cells,0.95,5234,inactive
OPRD1,-0.18,migration z between -2 and 2; enough cells,0.77,4340,inactive
TOP2B,1.06,migration z between -2 and 2; enough cells,1.01,6361,inactive
